The text below walks through data of PMC7904744.

By UniProt entry, the sequences of proteins in these tests, tags left out. Residues count along the entry.
UniProt Q15717, whole entry D226A: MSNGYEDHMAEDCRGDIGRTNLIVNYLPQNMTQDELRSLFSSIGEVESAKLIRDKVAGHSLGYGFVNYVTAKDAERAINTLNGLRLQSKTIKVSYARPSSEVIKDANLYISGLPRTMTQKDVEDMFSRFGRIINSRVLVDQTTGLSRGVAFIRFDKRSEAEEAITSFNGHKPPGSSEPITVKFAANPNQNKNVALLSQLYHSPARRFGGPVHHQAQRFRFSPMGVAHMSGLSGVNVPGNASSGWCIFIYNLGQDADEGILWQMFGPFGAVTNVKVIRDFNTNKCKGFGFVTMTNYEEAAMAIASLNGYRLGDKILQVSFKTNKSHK
UniProt Q15717, 20-186, stated change not applied: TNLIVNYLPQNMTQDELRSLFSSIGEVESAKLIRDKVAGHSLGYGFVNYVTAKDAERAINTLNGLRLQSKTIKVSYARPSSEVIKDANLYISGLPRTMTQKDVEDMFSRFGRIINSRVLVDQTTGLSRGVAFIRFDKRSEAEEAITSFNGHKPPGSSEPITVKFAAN
UniProt Q15717, 106-186: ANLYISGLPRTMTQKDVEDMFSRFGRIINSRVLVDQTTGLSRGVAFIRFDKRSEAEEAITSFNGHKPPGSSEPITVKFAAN
UniProt Q15717, 244-322: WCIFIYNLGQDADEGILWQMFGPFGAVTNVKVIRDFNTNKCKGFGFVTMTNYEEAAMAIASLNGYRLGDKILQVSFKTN
UniProt Q15717, whole entry: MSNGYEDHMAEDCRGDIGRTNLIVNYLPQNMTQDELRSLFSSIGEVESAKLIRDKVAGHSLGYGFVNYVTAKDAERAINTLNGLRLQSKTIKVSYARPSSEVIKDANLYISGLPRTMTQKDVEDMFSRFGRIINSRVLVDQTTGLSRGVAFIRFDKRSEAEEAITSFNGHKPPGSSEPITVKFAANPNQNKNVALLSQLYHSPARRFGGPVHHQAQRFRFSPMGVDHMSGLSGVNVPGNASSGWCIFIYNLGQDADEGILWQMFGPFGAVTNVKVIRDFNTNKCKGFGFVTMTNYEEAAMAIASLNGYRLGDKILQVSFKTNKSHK

Assay in all cases: EMSA
One data set deals with GST-HuR D226A (UniProt Q15717). The settings on record: unmodified, monomer band as WT, oligomer bands weakened; EMSA: 3 mM MgCl2, 40 mM KCl, 5% glycerol, 2 mM DTT, 2 ug tRNA, 5 nM RNA, 40 min room temperature; pH not stated; 6% native acrylamide gel; recombinant protein; protein details: GST; label: 5' biotin. Background: In EMSA bound probe runs differently from free probe, usually more slowly.

Data set [1] addresses GST-HuR D226A incubated with PARP1 (UniProt Q15717). The settings on record: after PARP1 reaction, monomer and oligomer bands reduced vs PARylated WT; EMSA: 3 mM MgCl2, 40 mM KCl, 5% glycerol, 2 mM DTT, 2 ug tRNA, 5 nM RNA, 40 min room temperature; pH not stated; 6% native acrylamide gel; recombinant protein; protein details: GST; label: 5' biotin.
The target of data set [2] is GST-HuR RRM1+RRM2 (delta HNS+RRM3) (UniProt Q15717). The settings on record: no multiple shifted bands, monomer association also impaired; EMSA: 3 mM MgCl2, 40 mM KCl, 5% glycerol, 2 mM DTT, 2 ug tRNA, 5 nM RNA, 40 min room temperature; pH not stated; 6% native acrylamide gel; recombinant protein; protein details: GST; label: 5' biotin.
In the next data set the target is GST-HuR delta RRM3 (UniProt Q15717). The settings on record: weak retarding complexes; EMSA: 3 mM MgCl2, 40 mM KCl, 5% glycerol, 2 mM DTT, 2 ug tRNA, 5 nM RNA, 40 min room temperature; pH not stated; 6% native acrylamide gel; recombinant protein; protein details: GST; label: 5' biotin.
A further data set deals with GST-HuR-HNS (UniProt Q15717). The settings on record: not effectively shifted; EMSA: 3 mM MgCl2, 40 mM KCl, 5% glycerol, 2 mM DTT, 2 ug tRNA, 5 nM RNA, 40 min room temperature; pH not stated; 6% native acrylamide gel; recombinant protein; protein details: GST; label: 5' biotin.
Another data set deals with GST-HuR-RRM2 (UniProt Q15717). The settings on record: not effectively shifted; EMSA: 3 mM MgCl2, 40 mM KCl, 5% glycerol, 2 mM DTT, 2 ug tRNA, 5 nM RNA, 40 min room temperature; pH not stated; 6% native acrylamide gel; recombinant protein; protein details: GST; label: 5' biotin.
The next data set concerns the target GST-HuR-RRM3 (UniProt Q15717). The settings on record: not effectively shifted; EMSA: 3 mM MgCl2, 40 mM KCl, 5% glycerol, 2 mM DTT, 2 ug tRNA, 5 nM RNA, 40 min room temperature; pH not stated; 6% native acrylamide gel; recombinant protein; protein details: GST; label: 5' biotin.
The target of another data set is PARylated GST-HuR (UniProt Q15717). The settings on record: PARylated, binding markedly enhanced vs unmodified, weakened by Olaparib; EMSA: 3 mM MgCl2, 40 mM KCl, 5% glycerol, 2 mM DTT, 2 ug tRNA, 5 nM RNA, 40 min room temperature; pH not stated; 6% native acrylamide gel; recombinant protein; protein details: GST; label: 5' biotin.

For at least one entry, the source does not settle the construct or the ends of the probe. For some of these results: Negatives hold for the conditions tested. For some of these results: At least one verdict was read from the data and is not stated in words by the source. For some of these results: A weaker result is weaker than the reference pair of the same experiment.

“AUUUAUUUAUUUAUUUAUUUAUUUA [AU-rich RNA oligo (tandem ARE repeat)]”: the binding result was “binds more weakly” with GST-HuR D226A; “binds more weakly” in data set [1]; “binds more weakly” in data set [2]; “binds more weakly” with GST-HuR delta RRM3; “no binding” in the data set with GST-HuR-HNS; “no binding” with GST-HuR-RRM2. Moreover, the binding result with GST-HuR-RRM3 is recorded as “no binding”; with PARylated GST-HuR, “binds”.
For the sequence “CUAUGUAUUUAUUUAUUUAUUAAUU [Cxcl2 ARE RNA oligo]”, the binding result in data set [2] is “binds more weakly”; in the data set with GST-HuR delta RRM3, “binds more weakly”; in the data set with GST-HuR-HNS, “no binding”; with GST-HuR-RRM2, “no binding”; with GST-HuR-RRM3, “no binding”.
